Test results published in PubChem BioAssay AID504467 (National Center for Advancing Translational Sciences (NCATS), 2011).
Screen size: about 330,000 compounds; about 7,700 (2.3%) were called active. Inconclusive results, whose numbers are uncertain, are shown with a selection of clear calls. Calls come from the whole dose curve; as a rule, active = well fitted inhibition curve with a large enough effect; inconclusive = small, poorly fitted or top-dose-only effect, or effect the other way; inactive = flat fitted curve, though single readings scatter. Potencies beside an inconclusive call are fits to weak or partial responses and may not hold up.
% is set by controls: 0 for no effect and ±100 for the full control effect; potency is the fitted concentration of half-maximal effect.

Test: qHTS screen for small molecules that inhibit ELG1-dependent DNA repair in human embryonic kidney (HEK293T) cells expressing luciferase-tagged ELG1; note: nearly all actives have a fitted effect of over 55% in size
Conditions: HEK293T ELG1-luciferase reporter, luminescence, 16 h, DNA damage induced by 5-fluorouridine; activity change, negative = inhibition: at 46.1 µM (top of the series)
In short: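 DMSO vehicle served as the neutral condition. Each well held 2,000 cells given 5-fluorouridine plus compound; after 16 hr at 37 °C/5% CO2, ONE-Glo was added and luciferase measured 30 min later.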
In the case of `CCC(Sc1nc2ccccc2s1)C(=O)Nc1cc(C)on1` (centres undefined), the Potency is reported as inconclusive: 7.31 µM [inhibitor, partial curve, poor fit].
For `Cc1ccc(C(=O)N/N=C\c2ccc([N+](=O)[O-])s2)cn1`, the Potency was inconclusive: 7.31 µM [inhibitor, partial curve].
With `Cc1cc(NC(=O)c2ccc(S(=O)(=O)N(C)C)cc2)no1` the Potency was inconclusive: 9.2 µM [activator, partial curve, poor fit].
For `O=C(Cn1ncc(Cl)c(Cl)c1=O)NC(=O)NC1CCCCC1`, the Potency was inconclusive: 29.1 µM [inhibitor, single point].
For `CCC1Sc2ccc(S(=O)(=O)CCC(=O)Nc3cc(C)ccn3)cc2NC1=O` (centres undefined), the “activity change, negative = inhibition” value was inactive: 0.267%.
With `O=C(Nc1cccc2cccnc12)c1ccc(Cl)cc1Cl` the Potency was inconclusive: 16.4 µM [activator, partial curve, poor fit].
For `Cc1ccc(NC(=O)CNCc2ccc(Cl)cc2Cl)cc1S(=O)(=O)N(C)C`, the “activity change, negative = inhibition” value was inactive: -6.18%.
With `CN(C)C(=O)c1cc(C(=O)c2c(F)cccc2F)c[nH]1` the Potency was inconclusive: 18.3 µM [activator, single point].
With `O=C(NCc1ccccc1)c1onc(CSc2ccc(F)cc2)c1C(=O)NCCCN1CCOCC1` the Potency was inconclusive: 0.92 µM [inhibitor, full curve, poor fit].
In the case of `Cc1nc2ccc(NC(=O)c3cc(S(=O)(=O)N(C)c4ccccc4)ccc3Cl)cc2s1`, the “activity change, negative = inhibition” value is reported as inactive: -7.26%.
For `COc1ccc([N+](=O)[O-])cc1NC(=O)Nc1ccc(OC)c(OC)c1`, the Potency was active: 14.6 µM.
For `COc1cccc(/C(O)=C/c2nc3ccc(C(=O)NCCc4cccc(C)c4)cc3[nH]c2=O)c1`, the Potency was inconclusive: 3.66 µM [inhibitor, partial curve, poor fit].
With `O=C(NCc1ccccn1)c1cc(-c2ccc(-c3ccccc3)cc2)nc2ccccc12` the Potency was inconclusive: 4.61 µM [activator, partial curve].
In the case of `O=C(Nc1ccc2c(c1)OCCO2)c1cncc(Br)c1`, the Potency is reported as inconclusive: 2.06 µM [activator, partial curve].
With `COc1ccc(NC(=O)CC2C(=O)N(CCc3ccccc3)C(=S)N2Cc2cccnc2)cc1` (centres undefined) the Potency was inconclusive: 20.6 µM [inhibitor, partial curve, poor fit].
For `COc1cccc(OCCCN2CCN(S(=O)(=O)c3ccc(NC(C)=O)cc3)CC2)c1`, the Potency was inconclusive: 14.6 µM [inhibitor, partial curve].
For `COC(=O)c1cc(C(=O)c2cc(F)ccc2O)cn2c(=O)c3c(C)c(C)sc3nc12`, the Potency was inconclusive: 16.4 µM [inhibitor, partial curve, poor fit].
In the case of `CC(C)(C)c1ccc(CN2C(=O)c3ccccc3S2(=O)=O)cc1`, the Potency is reported as inconclusive: 11.6 µM [activator, partial curve].
With `Cc1ccc(-c2nc(=O)[nH]c3ccc(Br)cc23)cc1` the “activity change, negative = inhibition” value was inactive: -15.7%.
For `COc1ccc(OC)c(S(=O)(=O)NC(N)=NCCc2ccccc2OC)c1`, the Potency was inconclusive: 29.1 µM [inhibitor, single point].
In the case of `O=C(NCCc1nnc2ccc(NCC3CCCO3)nn12)c1ccccc1` (centres undefined), the “activity change, negative = inhibition” value is reported as inactive: 4.65%.
In the case of `COc1ccc(NS(=O)(=O)c2cccc(Cl)c2)cc1S(=O)(=O)N1CCCCC1`, the Potency is reported as inconclusive: 18.4 µM [inhibitor, single point].
With `CCCC(=O)NC(=S)Nc1cccc(NC(=O)c2ccccc2Cl)c1` the Potency was inconclusive: 23.1 µM [inhibitor, partial curve, poor fit].
In the case of `Cc1ccc(NC(=O)c2ccccc2)cc1C`, the Potency is reported as inconclusive: 22.4 µM [activator, single point].
For `NC(=S)Nc1ccc(Cl)cc1Cl`, the “activity change, negative = inhibition” value was inactive: -14.9%.
For `COc1cccc(-c2cccc(NC(=O)C3CCN(Cc4ccon4)CC3)c2)c1`, the “activity change, negative = inhibition” value was inactive: -1.62%.
With `CCOc1ccc(OCC(=O)Nc2ccc(OC)cc2[N+](=O)[O-])cc1` the Potency was inconclusive: 18.3 µM [activator, partial curve].
For `CCOC(=O)c1[nH]c(C)c(C(=O)Nc2cc(Cl)ccc2C)c1C`, the Potency was inconclusive: 16.4 µM [activator, single point].
For `O=C(COC(=O)c1ccc(O)cc1)NC1CCCCCC1`, the Potency was inconclusive: 20.6 µM [activator, partial curve, poor fit].
With `O=C(/C=C/c1ccco1)NC(=S)Nc1ccc(N2CCOCC2)c(Cl)c1` the “activity change, negative = inhibition” value was inactive: 14.5%.
For `N#CC1=C(N)OC2=C(C(=O)CCC2)C1c1cc2c(cc1Br)OCO2` (centres undefined), the “activity change, negative = inhibition” value was inactive: 21%.
For `Cc1cccn2c(=O)c3cc(C#N)c(=NC(=O)c4cccs4)n(CCCOC(C)C)c3nc12`, the “activity change, negative = inhibition” value was inactive: 0%.
For `COc1ccc(N2C(=O)CCC2(C#N)c2ccc(OC)cc2)cc1` (centres undefined), the “activity change, negative = inhibition” value was inactive: -5.14%.
In the case of `O=C(CNC(=O)c1ccccc1)OCC(=O)N1N=C(c2ccc(Cl)cc2)CC1c1ccco1` (centres undefined), the “activity change, negative = inhibition” value is reported as inactive: 10.2%.
For `O=C(O)c1ccc(Oc2ccccc2)o1`, the “activity change, negative = inhibition” value was inactive: 7.34%.
With `CCN(CC(=O)Nc1cccc(S(=O)(=O)N(C)c2ccccc2)c1)Cc1ccccc1` the Potency was inconclusive: 20.6 µM [inhibitor, single point].
With `COc1ccc(NC(=O)c2cccc(-c3ccc(O)cc3)c2)cn1` the Potency was inconclusive: 29.1 µM [inhibitor, single point].
In the case of `COc1ccc(OC)c(-c2csc(NC(=O)Cc3cccs3)n2)c1`, the Potency is reported as inconclusive: 23.1 µM [inhibitor, single point].
In the case of `CC(C)Cn1cc(C(=O)N2CCN(c3ccccn3)CC2)c2c3ccccc3n(C)c2c1=O`, the Potency is reported as inconclusive: 20.6 µM [inhibitor, single point].
For `CN(C(=O)C1CCOC1)c1nnc(-c2ccccn2)s1` (centres undefined), the Potency was inconclusive: 20.6 µM [activator, partial curve].
For `COc1ccc2nc(SCC(=O)N(C)C3CCCCC3)[nH]c2c1`, the “activity change, negative = inhibition” value was inactive: 18.7%.
With `Cc1ccc(NC(=O)c2ccccc2NS(=O)(=O)c2ccc(F)cc2)cc1S(=O)(=O)N1CCCCC1` the Potency was inconclusive: 5.17 µM [inhibitor, partial curve, poor fit].
For `Cc1ccc(Nc2nc(-c3ccc(O)c(O)c3)cs2)nc1`, the Potency was inconclusive: 29.1 µM [activator, single point].
In the case of `COc1ccccc1NS(=O)(=O)c1ccc(O)c(C(=O)OCC(=O)N2c3ccccc3CC2C)c1` (centres undefined), the “activity change, negative = inhibition” value is reported as inactive: -4.84%.
